# No constants are given. Whether binding was seen depends on the method and setting. In cells and extracts the contact can be indirect. Some entries that bind do so weakly or less than the wild type.
# By UniProt entry, the sequences of proteins in these tests, tags left out.
# UniProt P51532: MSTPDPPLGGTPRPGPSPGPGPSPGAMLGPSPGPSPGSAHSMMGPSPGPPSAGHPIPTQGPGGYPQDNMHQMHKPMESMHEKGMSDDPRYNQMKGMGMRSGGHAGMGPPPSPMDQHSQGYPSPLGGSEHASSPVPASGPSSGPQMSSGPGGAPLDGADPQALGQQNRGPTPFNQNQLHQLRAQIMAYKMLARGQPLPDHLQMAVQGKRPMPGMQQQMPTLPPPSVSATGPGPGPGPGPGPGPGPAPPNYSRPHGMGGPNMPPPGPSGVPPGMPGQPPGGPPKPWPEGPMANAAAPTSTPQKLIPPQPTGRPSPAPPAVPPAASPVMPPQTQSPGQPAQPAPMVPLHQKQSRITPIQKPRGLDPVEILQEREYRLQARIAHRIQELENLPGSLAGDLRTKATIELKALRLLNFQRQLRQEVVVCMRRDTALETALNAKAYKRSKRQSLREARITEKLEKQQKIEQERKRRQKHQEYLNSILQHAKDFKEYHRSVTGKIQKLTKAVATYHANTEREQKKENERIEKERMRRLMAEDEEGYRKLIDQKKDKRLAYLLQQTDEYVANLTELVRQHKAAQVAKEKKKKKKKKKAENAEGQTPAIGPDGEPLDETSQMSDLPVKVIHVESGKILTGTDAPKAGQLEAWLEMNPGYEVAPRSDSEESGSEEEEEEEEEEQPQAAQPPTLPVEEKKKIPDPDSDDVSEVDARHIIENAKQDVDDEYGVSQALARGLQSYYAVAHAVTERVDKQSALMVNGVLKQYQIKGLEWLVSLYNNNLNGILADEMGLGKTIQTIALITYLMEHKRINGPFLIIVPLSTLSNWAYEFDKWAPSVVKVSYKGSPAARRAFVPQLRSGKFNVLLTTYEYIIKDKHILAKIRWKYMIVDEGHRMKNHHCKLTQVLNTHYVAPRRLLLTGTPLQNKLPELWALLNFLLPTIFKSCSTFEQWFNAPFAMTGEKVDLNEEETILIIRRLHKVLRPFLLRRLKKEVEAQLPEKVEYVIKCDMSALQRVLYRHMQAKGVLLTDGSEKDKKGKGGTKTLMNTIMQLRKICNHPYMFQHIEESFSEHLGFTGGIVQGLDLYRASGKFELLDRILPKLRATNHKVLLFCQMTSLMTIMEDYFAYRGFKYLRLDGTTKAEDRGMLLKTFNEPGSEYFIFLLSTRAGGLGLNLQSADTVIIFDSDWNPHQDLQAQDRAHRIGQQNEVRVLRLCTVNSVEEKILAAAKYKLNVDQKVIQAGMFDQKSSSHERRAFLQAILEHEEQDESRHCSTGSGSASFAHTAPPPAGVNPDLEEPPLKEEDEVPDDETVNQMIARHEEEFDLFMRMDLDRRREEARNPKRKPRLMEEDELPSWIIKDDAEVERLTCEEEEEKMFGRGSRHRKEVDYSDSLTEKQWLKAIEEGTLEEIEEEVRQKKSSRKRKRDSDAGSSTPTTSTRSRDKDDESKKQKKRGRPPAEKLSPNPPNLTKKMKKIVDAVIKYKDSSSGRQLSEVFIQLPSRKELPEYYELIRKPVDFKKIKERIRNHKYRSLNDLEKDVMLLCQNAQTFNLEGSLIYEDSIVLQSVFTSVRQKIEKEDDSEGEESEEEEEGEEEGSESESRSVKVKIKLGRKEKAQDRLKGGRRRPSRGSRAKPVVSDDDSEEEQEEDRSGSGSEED
# UniProt P40763: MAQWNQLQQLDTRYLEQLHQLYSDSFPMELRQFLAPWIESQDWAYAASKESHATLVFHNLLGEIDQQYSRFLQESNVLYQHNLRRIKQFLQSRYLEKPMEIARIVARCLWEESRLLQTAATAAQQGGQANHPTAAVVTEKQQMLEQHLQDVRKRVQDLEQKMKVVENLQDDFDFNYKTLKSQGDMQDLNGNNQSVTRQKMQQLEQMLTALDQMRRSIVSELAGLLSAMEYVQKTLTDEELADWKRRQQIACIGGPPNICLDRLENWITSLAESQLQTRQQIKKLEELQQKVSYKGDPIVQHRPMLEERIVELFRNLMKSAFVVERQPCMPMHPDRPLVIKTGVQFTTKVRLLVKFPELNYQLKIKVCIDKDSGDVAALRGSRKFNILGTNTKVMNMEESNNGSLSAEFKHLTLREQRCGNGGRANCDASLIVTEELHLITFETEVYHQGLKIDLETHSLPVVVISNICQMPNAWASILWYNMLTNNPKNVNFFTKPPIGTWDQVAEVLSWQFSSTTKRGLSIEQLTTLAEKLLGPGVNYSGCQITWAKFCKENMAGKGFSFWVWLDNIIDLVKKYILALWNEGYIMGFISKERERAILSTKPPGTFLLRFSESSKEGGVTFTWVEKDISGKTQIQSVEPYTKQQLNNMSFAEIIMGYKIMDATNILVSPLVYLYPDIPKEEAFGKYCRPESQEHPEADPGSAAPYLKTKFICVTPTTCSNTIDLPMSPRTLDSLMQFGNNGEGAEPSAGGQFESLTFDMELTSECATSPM
# Target: BRG1 (also known as SMARCA4) (human (endogenous in LoVo)) (UniProt P51532)
# Test: co-IP; immunoprecipitation with anti-BRG1 or anti-STAT3 antibodies in LoVo cells, followed by immunoblotting; endogenous proteins
substance,measurement,value
STAT3 (from UniProt P40763 1-770),binding,binds

# Source: paper PMC5095016
